Data reported in article PMC5518511.
These are yes or no findings as the source states them, for the method shown. Binding seen in cells or lysates may run through a third protein. Some binding calls cover weakened binding; strength is not graded here.

Sequences of proteins named here, by UniProt entry; tags and fusion partners are left off.
UniProt O14977: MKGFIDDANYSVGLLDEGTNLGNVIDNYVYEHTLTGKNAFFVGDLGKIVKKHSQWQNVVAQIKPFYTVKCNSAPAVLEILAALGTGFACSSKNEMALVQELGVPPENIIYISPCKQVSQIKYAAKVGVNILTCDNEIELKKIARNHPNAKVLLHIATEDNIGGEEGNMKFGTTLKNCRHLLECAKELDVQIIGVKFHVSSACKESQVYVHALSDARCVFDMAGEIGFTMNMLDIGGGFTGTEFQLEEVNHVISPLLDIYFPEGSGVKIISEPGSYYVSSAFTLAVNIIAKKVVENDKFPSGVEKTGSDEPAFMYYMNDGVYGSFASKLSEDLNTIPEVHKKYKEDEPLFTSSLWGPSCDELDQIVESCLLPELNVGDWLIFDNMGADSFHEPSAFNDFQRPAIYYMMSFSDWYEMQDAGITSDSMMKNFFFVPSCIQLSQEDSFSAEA
UniProt P54368: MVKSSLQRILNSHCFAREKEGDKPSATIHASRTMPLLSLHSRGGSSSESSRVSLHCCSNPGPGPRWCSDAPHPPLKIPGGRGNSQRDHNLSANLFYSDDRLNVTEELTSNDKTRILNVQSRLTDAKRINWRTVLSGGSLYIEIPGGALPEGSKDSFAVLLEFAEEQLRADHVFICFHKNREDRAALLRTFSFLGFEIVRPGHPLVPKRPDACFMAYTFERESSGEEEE
UniProt P00860: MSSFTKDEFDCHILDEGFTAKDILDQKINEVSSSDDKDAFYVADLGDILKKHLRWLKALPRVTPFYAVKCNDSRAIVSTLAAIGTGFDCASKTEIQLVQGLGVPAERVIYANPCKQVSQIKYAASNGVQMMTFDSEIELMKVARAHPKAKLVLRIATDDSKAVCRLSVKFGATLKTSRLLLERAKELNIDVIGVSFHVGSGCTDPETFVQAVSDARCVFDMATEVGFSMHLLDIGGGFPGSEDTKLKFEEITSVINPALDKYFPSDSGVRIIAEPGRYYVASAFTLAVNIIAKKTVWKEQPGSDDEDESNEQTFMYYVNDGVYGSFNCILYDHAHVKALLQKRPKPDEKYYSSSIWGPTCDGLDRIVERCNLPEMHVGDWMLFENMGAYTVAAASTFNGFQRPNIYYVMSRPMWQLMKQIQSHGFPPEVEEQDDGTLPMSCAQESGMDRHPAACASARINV

Columns and labels:
[1] = target: ODC antizyme inhibitor 1 (AZIN1), human (human) (UniProt O14977); assay: co-IP; Cos-7 cells co-transfected with FLAG- and Myc-tagged constructs; FLAG-tagged protein immunoprecipitated from lysate with mouse anti-FLAG antibody and protein G-agarose; co-precipitated Myc-tagged protein detected by blot with rabbit anti-Myc antibody (Figure 5, Supplementary Fig. S4)
[2] = target: ODC antizyme 1 (OAZ1) (UniProt P54368); assay: co-IP; Cos-7 cells co-transfected with FLAG- and Myc-tagged constructs; Myc-tagged protein immunoprecipitated from lysate with mouse anti-Myc antibody and protein G-agarose; co-precipitated FLAG-tagged protein detected by blot with rabbit anti-FLAG antibody (Figure 6A)
[3] = target: ornithine decarboxylase (ODC), mouse (mouse) (UniProt P00860); assay: co-IP; Cos-7 cells co-transfected with FLAG- and Myc-tagged constructs; FLAG-tagged protein immunoprecipitated from lysate with mouse anti-FLAG antibody and protein G-agarose; co-precipitated Myc-tagged protein detected by blot with rabbit anti-Myc antibody (Figure 5, Supplementary Fig. S4)
[4] = target: ornithine decarboxylase (ODC), mouse (mouse) (UniProt P00860); assay: co-IP; Cos-7 cells co-transfected with FLAG- and Myc-tagged constructs; Myc-tagged protein immunoprecipitated from lysate with mouse anti-Myc antibody and protein G-agarose; co-precipitated FLAG-tagged protein detected by blot with rabbit anti-FLAG antibody (Figure 6A)

ODC antizyme 1 (OAZ1) (from UniProt P54368 1-228)
binding [1]: binds

ODC antizyme inhibitor 1 (AZIN1), human (from UniProt O14977 1-448)
binding [2]: binds

ornithine decarboxylase (ODC), mouse (from UniProt P00860 1-461) (enzyme)
binding [3]: binds
binding [4]: binds
